# Assay results as given in publication PMC7819943, “Rice protein-binding microarrays: a tool to detect cis-acting elements near promoter regions in rice”.
# Some of the results follow.
# Molecular target: T1, OsSMF1 (Oryza sativa, UniProt Q6ZLB0 1-436)
# T1 sequence: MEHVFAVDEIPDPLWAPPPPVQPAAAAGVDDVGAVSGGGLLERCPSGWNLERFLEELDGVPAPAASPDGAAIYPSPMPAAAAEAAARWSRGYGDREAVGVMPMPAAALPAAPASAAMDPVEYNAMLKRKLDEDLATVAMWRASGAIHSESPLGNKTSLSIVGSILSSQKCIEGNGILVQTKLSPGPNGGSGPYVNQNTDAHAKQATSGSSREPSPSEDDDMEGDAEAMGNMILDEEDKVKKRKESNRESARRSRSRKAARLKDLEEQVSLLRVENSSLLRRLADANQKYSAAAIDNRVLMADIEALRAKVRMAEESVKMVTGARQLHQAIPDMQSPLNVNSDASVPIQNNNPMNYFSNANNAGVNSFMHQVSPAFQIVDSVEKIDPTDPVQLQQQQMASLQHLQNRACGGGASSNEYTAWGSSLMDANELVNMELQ
# Experiment: protein-binding microarray (RPBM); PBS, 2% BSA, 51.3 ng/ul salmon testes DNA, 50 uM zinc acetate, 200 nM TF, 25 C, 1 h; high values mean tight binding
# Conditions: protein: recombinant; tags: N-terminal polyhistidine and DsRed monomer fusion (pET32a); chain copies: 2; label: CyDye5-dUTP incorporated in the synthesized complementary strand; 3' TTTTT single-stranded linker to array surface; dsDNA, one strand shown
# Outline: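 Transcription factors were made in E. coli BL21-CodonPlus as N-terminal fusions to a polyhistidine tag and DsRed, then purified on Ni–NTA. After primer extension with Cy5-dUTP and blocking with 2% BSA, a custom Agilent array was exposed for 1 h at 25 °C to 200 nM protein in PBS, 2% BSA, salmon testes DNA and 50 µM zinc acetate. Washed arrays were scanned on an Axon 4000B, and the binding signal is per-feature fluorescence intensity in arbitrary units.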
row,Sequence,binding signal
1,TCGCACGGGCCATGGAGCTACGTGGAGGGCGCGGTGTACCCGGAGTCACCTAGTGCAG,4020 fluorescence intensity (a.u.)
2,AATGCAATCTGGATTGTCACGCATATGCCACGTAGGATAACGGAGTCACCTAGTGCAG,22500 fluorescence intensity (a.u.)
3,GAATATATCACATATGGTCATAGATTTGTTGTTTATGGGACGGAGTCACCTAGTGCAG,3560 fluorescence intensity (a.u.)
4,CGAAGACGCCGCGTGGCCATGATCCTAGCATTTGGGATGGCGGAGTCACCTAGTGCAG,4580 fluorescence intensity (a.u.)
5,AGCTTGTGTACCCAGGAGATCTACATACTTCGCTACGTCACGGAGTCACCTAGTGCAG,4570 fluorescence intensity (a.u.)
6,TGAGCTCATGCTCGTTGGCCCATGTCACCGGTCAGCCTCACGGAGTCACCTAGTGCAG,3690 fluorescence intensity (a.u.)
7,GCCTCACACAGTCACACCTATTCAGAACTTCATGTCAGTACGGAGTCACCTAGTGCAG,4420 fluorescence intensity (a.u.)
8,AAAATAGTGTCCAACCCAATGACGTATTATAGAATAATTGCGGAGTCACCTAGTGCAG,4490 fluorescence intensity (a.u.)
9,ACGCGTGGGTGCCCGCGTCATCTTCTCCGGCTCGCCGTTGCGGAGTCACCTAGTGCAG,8040 fluorescence intensity (a.u.)
10,CCAGCTGTGTTGGTCCAGCTGGACGTGGACAGTTGGGCAACGGAGTCACCTAGTGCAG,3140 fluorescence intensity (a.u.)
11,CTCGTCTCTCCTCACTCCACTCGACTCCTCACTCATCCTACGGAGTCACCTAGTGCAG,3380 fluorescence intensity (a.u.)
12,GCGTGTTGCGCACGGCGCACGCCGCCGCAAACGTCGCCGCCGGAGTCACCTAGTGCAG,4620 fluorescence intensity (a.u.)
13,TGTCTATTTCATTAAACCTCGTCCTTTCTTTCATTCCGGACGGAGTCACCTAGTGCAG,38200 fluorescence intensity (a.u.)
14,AAGGTATTGTCCCCTAGGGGATCTCTTGGGCGACGTGGCGCGGAGTCACCTAGTGCAG,6960 fluorescence intensity (a.u.)
15,GTTGACTTGCTGAGTCAACAAGCGGGTCTCACATGTCAGCCGGAGTCACCTAGTGCAG,14600 fluorescence intensity (a.u.)
16,TTTCTCTTGCGCGTTGTGCTGCTGCTGCTGACGATACGGGCGGAGTCACCTAGTGCAG,4720 fluorescence intensity (a.u.)
17,GAGGCTGACGAGGCTCATGTAGGCCACCTCTAGCACCAGCCGGAGTCACCTAGTGCAG,5350 fluorescence intensity (a.u.)
18,TTGTGGGACGTGGGTCGGGGATGGATGGATAGGCAAGGCGCGGAGTCACCTAGTGCAG,3190 fluorescence intensity (a.u.)
19,CTGTTGTGTTGTGTTGTAATATGATTATGTGGGTGCTTATCGGAGTCACCTAGTGCAG,3290 fluorescence intensity (a.u.)
20,AAACACGATCCGCGCTGACCGCCGCGCCGCCAACCGGCAACGGAGTCACCTAGTGCAG,3300 fluorescence intensity (a.u.)
21,AAATATAATAAATTTAATGTTAACATATTTTACACGTAAGCGGAGTCACCTAGTGCAG,9740 fluorescence intensity (a.u.)

# 2 entries from above in another layout.
row | Sequence | binding signal
2 | AATGCAATCTGGATTGTCACGCATATGCCACGTAGGATAACGGAGTCACCTAGTGCAG | 22500 fluorescence intensity (a.u.)
3 | GAATATATCACATATGGTCATAGATTTGTTGTTTATGGGACGGAGTCACCTAGTGCAG | 3560 fluorescence intensity (a.u.)

# (further entries)

row,Sequence,binding signal
1,TTCCTTTTGGCAAAATTGGTTCTATAGCTGAGCCGGCCAACGGAGTCACCTAGTGCAG,3230 fluorescence intensity (a.u.)
2,AGTAATGGCATCAGCAATGTATGGGTTACAACCAGGCATTCGGAGTCACCTAGTGCAG,31200 fluorescence intensity (a.u.)
3,GAATTGGGGAGGGAGATTAATAATGGATCTTCGCTTTCTGCGGAGTCACCTAGTGCAG,3410 fluorescence intensity (a.u.)
4,GTCAAACGTTAGACACGAATTTCCACGATTGCACTTATTTCGGAGTCACCTAGTGCAG,3950 fluorescence intensity (a.u.)
5,TGCCGCCGCCGCCACCTCCGCCGCTGTCCGCCGCCGGCGCCGGAGTCACCTAGTGCAG,4060 fluorescence intensity (a.u.)
6,GCGGATCGAACGGTCAGAACGACCCAACCCCACACTCAAGCGGAGTCACCTAGTGCAG,3750 fluorescence intensity (a.u.)
7,CATGTGTGGTGAGCATATTTGTTTGTACTGTTGTATTTTACGGAGTCACCTAGTGCAG,3550 fluorescence intensity (a.u.)
8,TGTTGGACCACGTGCGCGCGAGCCCGATTCCCCGCGGTAGCGGAGTCACCTAGTGCAG,5180 fluorescence intensity (a.u.)
9,TGTTCATAAAAGTAAATGTGCGTGCGTGATTGTATTGTATCGGAGTCACCTAGTGCAG,12500 fluorescence intensity (a.u.)
10,TCCCATCTAGTATCCTACGTGGCGCTGATGTGGCATGCCACGGAGTCACCTAGTGCAG,20500 fluorescence intensity (a.u.)
11,GAAATTATAACATTGTAATTTACTATGAGTTACAAAGTAACGGAGTCACCTAGTGCAG,22800 fluorescence intensity (a.u.)
12,TATATGAACCAAACTCTGATCGATGAGTCAGCAACTTAGGCGGAGTCACCTAGTGCAG,7200 fluorescence intensity (a.u.)
13,CAGCTCAAACCATGGCGCCGCCATGCCCACGGCGACGACCCGGAGTCACCTAGTGCAG,3190 fluorescence intensity (a.u.)
14,CTCACAGCTTCGCGGTTTCCACGCACTTGAAAACTCACGTCGGAGTCACCTAGTGCAG,3270 fluorescence intensity (a.u.)
15,TATTTCCCATACAGTCAGTATCCACTCTATGTTCCACCACCGGAGTCACCTAGTGCAG,4900 fluorescence intensity (a.u.)
16,TGTCCGTAGCCGACGCGCGCCGCGTCGGCTGACATGCGGGCGGAGTCACCTAGTGCAG,6270 fluorescence intensity (a.u.)
17,ATCTTGCGAAGACGTACGTGCAGAATGCATCATCCATGATCGGAGTCACCTAGTGCAG,3240 fluorescence intensity (a.u.)
18,CCGTCCCGCCACGTGGCGCAAAAGCGTGTTCACGGGCCCCCGGAGTCACCTAGTGCAG,13300 fluorescence intensity (a.u.)
19,GTACCAAATGTAATAATTAACATATTTTGTCAATCTTATACGGAGTCACCTAGTGCAG,3710 fluorescence intensity (a.u.)
20,TGGCTAGTGTGTCCATTTGACGCTGGTAAAGTCAATTCGTCGGAGTCACCTAGTGCAG,3480 fluorescence intensity (a.u.)
21,GGCTATGTTACCCAGATACGGCTGAAAAGCCACGTATCCGCGGAGTCACCTAGTGCAG,6270 fluorescence intensity (a.u.)
